Measurements published in patent US7521254B2, “Quantitative measurements of concentration and solubility using Raman spectroscopy” (Transform Pharmaceuticals, Inc., priority 2004, dated 2009).
At least one compound was matched to its structure with a doubt left.

Assay: Raman spectroscopic measurement of solute concentration in multi-component solvent mixtures
Assay type: physicochemical
Conditions: prepared at 10 mg/mL; 1:1 binary mixtures by volume (Table V); RSD 10.5 percent

## Cc1ccc(-c2cc(C(F)(F)F)nn2-c2ccc(S(N)(=O)=O)cc2)cc1 [Celecoxib]
  mean value for the concentration: 9.96 mg/mL
